# The campaign covered roughly 320,000 compounds. About 22,000 (6.9%) were called active. Inconclusive means that the source gave no clear call. Such entries were picked first, then a sample of the others. Calls follow the shape of the dose curve; as a rule, active = well fitted inhibition curve with a large enough effect; inconclusive = small, poorly fitted or top-dose-only effect, or another doubt; inactive = no such curve, though single readings can be large or run the other way. A potency beside an inconclusive call is a rough fit, not a confirmed value.
# Experiment: Primary qHTS for delayed death inhibitors of the malarial parasite plastid, 96 hour incubation
# Conditions: P. falciparum luciferase reporter growth; series mostly up to 28.7 µM
# How it was run: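 Readout is luminescence from an integrated firefly luciferase in P. falciparum. Red cells, 2% hematocrit and 0.05% parasitemia final, were cultured with compound through two parasite generations (96 hours) at 37 C, 5% CO2.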
# Potency is read from the fitted curve at half-maximal effect.
row,Structure (SMILES),Potency
1,N/C(=N\OC(=O)c1cc(Br)ccc1Cl)c1cccnc1,"inconclusive: 0.37 µM [inhibitor, full curve, poor fit]"
2,COc1ccc(NC(=O)CCc2nnc3ccc(NCc4ccc5c(c4)OCO5)nn23)cc1,"inconclusive: 18.5 µM [inhibitor, single point]"
3,COCCNC(=O)CCc1c(C)nc2c(c(C)nn2-c2ccc(C)c(C)c2)c1C,"inconclusive: 8.28 µM [inhibitor, partial curve, poor fit]"
4,CCCCn1c(N)c(N(CCOC)C(=O)c2cc3c(s2)CCC(C)C3)c(=O)[nH]c1=O (centres undefined),"inconclusive: 9.28 µM [inhibitor, single point]"
5,CC(=O)NS(=O)(=O)c1ccc(NC(=O)CSc2ccccc2)cc1,"inconclusive: 0.0828 µM [inhibitor, full curve, poor fit]"
6,Cc1ccc(C(c2nnnn2Cc2cccs2)N2CCN(C(=O)c3ccco3)CC2)cc1 (centres undefined),"inconclusive: 18.5 µM [inhibitor, single point]"
7,CCN(C(=O)COc1ccc(F)cc1Br)c1c(N)n(Cc2ccccc2)c(=O)[nH]c1=O,inactive
8,CC(C)(C)NC(=O)CSc1ncnc2c1nnn2Cc1ccccc1Cl,"inconclusive: 14.7 µM [inhibitor, single point]"
9,C/C(=N\NC(=O)c1cccc2ccccc12)c1cccs1,inactive
10,COc1ccc(NC(=O)Nc2nnc(-c3ccccc3F)s2)cc1,"inconclusive: 18.5 µM [inhibitor, single point]"
11,COCCC(=O)N1CCC(Oc2ccc(C(=O)NC3CCOC(C)(C)C3)cc2)CC1 (centres undefined),"inconclusive: 0.0047 µM [inhibitor, full curve, poor fit]"
12,Cc1nn(C(C)C(=O)NC2CCCCCC2)c(=O)c2nn(-c3ccccc3)c(C)c12 (centres undefined),active: 11.7 µM
13,COc1cc(C(C(=O)NC2CCCCC2)N(C(=O)Cc2c[nH]c3ccccc23)c2ccccc2C)cc(OC)c1OC (centres undefined),"inconclusive: 4.15 µM [inhibitor, single point]"
14,CCOc1cccc(CNc2ccc(O)cc2)c1OCc1ccc(Cl)cc1,inactive
15,N/C(=N\OC(=O)C12CC3CC(CC(C3)C1)C2)c1ccccn1,inactive
16,CN(C)CCCNc1ncnc2c1c(-c1ccccc1)cn2-c1ccccc1,"inconclusive: 14.7 µM [inhibitor, single point]"
17,O=C(NC1CCCC1)C(c1c[nH]c2ccccc12)N(C(=O)Cn1nnc(-c2ccc(Cl)cc2)n1)c1ccccc1 (centres undefined),"inconclusive: 13.1 µM [inhibitor, single point]"
18,CCn1cc(C(=O)O)c(=O)c2cnc(N3CCN(C(=S)NC(=O)c4ccc(OC)cc4)CC3)nc21,inactive
19,CC1(C)NC(=O)N(CC(=O)Nc2cc(S(=O)(=O)N3CCOCC3)ccc2N2CCOCC2)C1=O,active: 7.38 µM
20,O=C(N/C(=C/c1cccc([N+](=O)[O-])c1)C(=O)N1CCCCC1)c1cccs1,"inconclusive: 18.5 µM [inhibitor, single point]"
21,CC(C)C[C@H](NC(=O)OC(C)(C)C)C(=O)N/N=C/C1=Cc2ccccc2OC1C (some centres undefined),"inconclusive: 10.4 µM [inhibitor, partial curve, poor fit]"
22,CC(=O)c1cccc(NC2c3ccccc3C(=O)N2Cc2ccco2)c1 (centres undefined),inactive
23,O=c1cc(NS(=O)(=O)c2ccccc2)nc(SCc2ccc(Cl)cc2)[nH]1,"inconclusive: 0.415 µM [inhibitor, partial curve, poor fit]"

row,Structure (SMILES),Potency
1,CN(C)c1ccc(/C=C/C=C2/SC(=S)N(c3ccccc3)C2=O)cc1,inactive
2,CS(=O)(=O)N(CC(O)CON=C1c2ccccc2-c2ccccc21)c1ccc(F)cc1 (centres undefined),"inconclusive: 0.37 µM [inhibitor, partial curve, poor fit]"
3,COc1ccccc1NC(=O)C1CCCCN1S(=O)(=O)c1ccc(F)cc1 (centres undefined),"inconclusive: 2.33 µM [inhibitor, single point]"
4,Cc1ccc(-n2nc3c(c2NC(=O)c2c(F)cccc2Cl)CS(=O)(=O)C3)cc1C,"inconclusive: 18.5 µM [inhibitor, single point]"
5,O=C(NC1CS(=O)(=O)CC1NCc1ccccc1)c1ccccc1 (centres undefined),"inconclusive: 9.28 µM [inhibitor, single point]"
6,Cc1ccc(N2C(=O)c3ccccc3C2O)nc1 (centres undefined),"inconclusive: 11.7 µM [inhibitor, partial curve, poor fit]"
7,COc1cc(C)c(Cl)cc1S(=O)(=O)N1CCSC1,active: 11.7 µM
8,CCOC(=O)C1(S(=O)(=O)c2ccc(Cl)cc2)CCN(Cc2ccc(Cl)cc2)CC1,inactive
9,Cc1ccccc1CN1CCNC(=O)C1CC(=O)NC1CCCCCCC1 (centres undefined),active: 2.62 µM
10,COc1ccc(NC(C)=[N+](C)CCNS(=O)(=O)c2ccc(Cl)cc2)cc1,inactive
11,COc1ccc(C(=O)Nc2ccc(NS(=O)(=O)c3ccccc3)cc2)cc1OC,"inconclusive: 9.28 µM [inhibitor, single point]"
12,Cc1cc(C)cc(Oc2cc(NC(=O)c3cn(C)nc3C)cc([N+](=O)[O-])c2)c1,active: 8.28 µM
13,CCn1c(=O)n(CC)c2cc(N3CCCC3)c(NC(=O)c3ccc(OC)c(Br)c3)cc21,inactive
14,CCN(CC)C(=O)C(=O)Nc1ccc(OC)c(Cl)c1,inactive
15,Cc1ccc(CNS(=O)(=O)c2cn(C)c(=O)n(C)c2=O)cc1,inactive
16,COc1ccc(CCNC(=O)CCc2nc3sc4c(c3c(=O)[nH]2)CCCC4)cc1,"inconclusive: 9.28 µM [inhibitor, partial curve]"
17,CN1CCN(CCCNC(=O)CN2C(=O)COc3ccccc32)CC1,inactive
18,Cc1cccn2c(=O)c3cc(S(=O)(=O)c4ccccc4)c(=N)n(Cc4ccc(F)cc4)c3nc12,"inconclusive: 5.22 µM [inhibitor, partial curve]"
19,O=Cc1cnc(N2CCN(c3ccccc3)CC2)s1,inactive
20,CCn1c(SCC(=O)N2CCOCC2)nc2c(c1=O)SC(C)C2 (centres undefined),active: 2.08 µM
21,Cc1ccc(NC(=O)c2ccc([N+](=O)[O-])cc2Cl)nc1,inactive
22,CCCCn1c(-c2cccc(C)c2)nc2cc3[nH]c(=O)c(C(C)C)nc3cc21,active: 4.15 µM
23,Cc1ccc(-n2nc(C)cc2Nc2ncc(Cl)cc2Cl)cc1,"inconclusive: 16.5 µM [inhibitor, single point]"

# Look-ups from the list.
# Entry of Cc1ccc(NC(=O)c2ccc([N+](=O)[O-])cc2Cl)nc1 under Potency: inactive
# Entry of CCn1c(SCC(=O)N2CCOCC2)nc2c(c1=O)SC(C)C2 (centres undefined) under Potency: active: 2.08 µM
# Entry of COc1ccccc1NC(=O)C1CCCCN1S(=O)(=O)c1ccc(F)cc1 (centres undefined) under Potency: inconclusive: 2.33 µM [inhibitor, single point]

# More records.

row,Structure (SMILES),Potency
1,O=C(NCCc1c[nH]c2ccccc12)[C@@H]1C[C@H]1[C@@H](NP(=O)(c1ccccc1)c1ccccc1)c1ccccc1,"inconclusive: 2.08 µM [inhibitor, partial curve, poor fit]"
2,CC1Cc2ccccc2N1C(=O)c1cc2sccc2n1Cc1ccc(F)cc1 (centres undefined),"inconclusive: 18.5 µM [inhibitor, single point]"
3,C=CCNC(=O)c1ccc2nc(-c3ccccc3)c(-c3ccccc3)nc2c1,"inconclusive: 14.7 µM [inhibitor, partial curve, poor fit]"
4,COc1ccc(N2CC(C(=O)Nc3ccc4c(c3)OCO4)CC2=O)cc1 (centres undefined),"inconclusive: 18.5 µM [inhibitor, single point]"
5,O=c1oc(-c2ccc(Br)cc2)nc2ccccc12,active: 5.86 µM
6,O=C(/C=C/c1ccc2c(c1)OCO2)Nc1cc(S(=O)(=O)N2CCOCC2)ccc1N1CCOCC1,"inconclusive: 2.33 µM [inhibitor, full curve]"
7,CCc1ccc(C(=O)NNc2ccc(C)c(Cl)c2)cc1,inactive
8,CC(=O)N1CCC(N2CCN(c3ccccc3F)CC2)CC1,inactive
9,CCCCn1nc(C(=O)Oc2ccc3c(C)cc(=O)oc3c2)c2ccccc2c1=O,"inconclusive: 18.5 µM [inhibitor, single point]"
10,CN(C)c1ccc(/C=N/c2cc(-c3ccccc3)nn2-c2ccccc2)cc1,inactive
11,Cc1cnn(CCC(=O)NNC(=S)Nc2ccccc2)c1,inactive
12,CC(=O)c1ccc(S(=O)(=O)N(C)CCCC(=O)NCc2ccc3c(c2)OCO3)cc1,"inconclusive: 0.415 µM [inhibitor, full curve, poor fit]"
13,Fc1ccc(C2=Nn3c(Cc4ccccc4F)nnc3SC2)cc1,"inconclusive: 11.7 µM [inhibitor, single point]"
14,CCOc1ccc(NC(N)=O)cc1OCC,"inconclusive: 14.7 µM [inhibitor, partial curve, poor fit]"
15,O=C(COc1ccc([N+](=O)[O-])cc1)Nc1cccc2nsnc12,"inconclusive: 13.1 µM [inhibitor, single point]"
16,C=CCS/C(=N\n1cnc2ccccc2c1=O)N(CC)CC,"inconclusive: 10.4 µM [inhibitor, partial curve, poor fit]"
17,CCN(C1CCCCC1)S(=O)(=O)c1ccc(S(=O)(=O)NCCc2ccncc2)cc1,"inconclusive: 10.4 µM [inhibitor, single point]"
18,CCOC(=O)C1CC2CC(C1)CN(C(=O)C1CCCCC1)C2 (centres undefined),"inconclusive: 18.5 µM [inhibitor, single point]"
19,COCc1nnc(NC(=O)C2CCN(C(=O)c3ccco3)CC2)s1,"inconclusive: 11.7 µM [inhibitor, partial curve]"
20,COC(=O)c1ccc(CNC(=O)c2ccc(S(=O)(=O)N(C)c3ccccc3OC)cc2)cc1,"inconclusive: 18.5 µM [inhibitor, single point]"
21,C=CCNc1ncnc2c1[nH]c1ccc(C)cc12,"inconclusive: 18.5 µM [inhibitor, single point]"
22,CCOCCn1c(=NC(=O)c2cc(Cl)sc2Cl)sc2cc(S(N)(=O)=O)ccc21,inactive
23,COc1cccc(C(=O)N2CCC(n3nccc3NC(=O)CCOc3ccccc3)CC2)c1,"inconclusive: 13.1 µM [inhibitor, partial curve]"
